Results as given in US20060280745A1 (MEDICAL RESEARCH COUNCIL, published 2006).
These are yes or no findings as the source states them, for the method shown. Some results given as binding are weak or reduced against the parent protein; the word gives no strength.

Experiments:
murine PrP^Sc (mouse) [1] = target: murine PrP^Sc (mouse) (UniProt P04925); experiment: immunohistochemistry on spleen sections (FIG. 2a)
murine PrP^Sc (mouse) [2] = target: murine PrP^Sc (mouse) (UniProt P04925); experiment: immunohistochemistry on formalin-fixed spleen sections
murine PrP^Sc (mouse) [3] = target: murine PrP^Sc (mouse) (UniProt P04925); experiment: immunoprecipitation from scrapie-infected mouse brain (FIG. 1a)
murine PrP^Sc (mouse) [4] = target: murine PrP^Sc (mouse) (UniProt P04925); experiment: Western blot of proteinase K-treated, NaPTA-precipitated splenic PrP^Sc

Measured: binding

B1: ICSM 18 (antibody, V domains shown)
VH: EVQLQQSGPELVKPGSSVKISCKASRNTFTDYNLDWVKQSHGKTLEWIGNVYPNNGVTGYNQKFRGKATLTVDKSSSTAYMELHSLTSEDSAVYYCALYYYDVSYWGQGTLVTVSA
VL: QIVLTQSPAIMSASPGEKVTMTCSASSSVSYMHWYQQKSGTSPKRWIYDTSKLASGVPARFSGSGSGTSYSLTISSMEAEDAATYFCHQWRSNPYTFGGGTKLEIKR
notes: also called biotinylated ICSM 18
binds: murine PrP^Sc (mouse) [1] | murine PrP^Sc (mouse) [2] | murine PrP^Sc (mouse) [3] | murine PrP^Sc (mouse) [4]
